Results on two molecules are retold here after paper doi:10.1101/2021.07.08.451585.

Results are given in words; binding and its absence hold for the method and conditions named. Binding seen in cells or lysates may run through a third protein. Here binding means that the protein was enriched with, or labelled near, the bait; the list need not be complete. Where a sequence is shown, tags or fusion partners need not be part of it.

In this experiment the target is T1, endogenously 3xHA-tagged CLUH protein of mouse embryonic stem cells (mouse (endogenous in mESC)) (UniProt Q5SW19).
T1 sequence: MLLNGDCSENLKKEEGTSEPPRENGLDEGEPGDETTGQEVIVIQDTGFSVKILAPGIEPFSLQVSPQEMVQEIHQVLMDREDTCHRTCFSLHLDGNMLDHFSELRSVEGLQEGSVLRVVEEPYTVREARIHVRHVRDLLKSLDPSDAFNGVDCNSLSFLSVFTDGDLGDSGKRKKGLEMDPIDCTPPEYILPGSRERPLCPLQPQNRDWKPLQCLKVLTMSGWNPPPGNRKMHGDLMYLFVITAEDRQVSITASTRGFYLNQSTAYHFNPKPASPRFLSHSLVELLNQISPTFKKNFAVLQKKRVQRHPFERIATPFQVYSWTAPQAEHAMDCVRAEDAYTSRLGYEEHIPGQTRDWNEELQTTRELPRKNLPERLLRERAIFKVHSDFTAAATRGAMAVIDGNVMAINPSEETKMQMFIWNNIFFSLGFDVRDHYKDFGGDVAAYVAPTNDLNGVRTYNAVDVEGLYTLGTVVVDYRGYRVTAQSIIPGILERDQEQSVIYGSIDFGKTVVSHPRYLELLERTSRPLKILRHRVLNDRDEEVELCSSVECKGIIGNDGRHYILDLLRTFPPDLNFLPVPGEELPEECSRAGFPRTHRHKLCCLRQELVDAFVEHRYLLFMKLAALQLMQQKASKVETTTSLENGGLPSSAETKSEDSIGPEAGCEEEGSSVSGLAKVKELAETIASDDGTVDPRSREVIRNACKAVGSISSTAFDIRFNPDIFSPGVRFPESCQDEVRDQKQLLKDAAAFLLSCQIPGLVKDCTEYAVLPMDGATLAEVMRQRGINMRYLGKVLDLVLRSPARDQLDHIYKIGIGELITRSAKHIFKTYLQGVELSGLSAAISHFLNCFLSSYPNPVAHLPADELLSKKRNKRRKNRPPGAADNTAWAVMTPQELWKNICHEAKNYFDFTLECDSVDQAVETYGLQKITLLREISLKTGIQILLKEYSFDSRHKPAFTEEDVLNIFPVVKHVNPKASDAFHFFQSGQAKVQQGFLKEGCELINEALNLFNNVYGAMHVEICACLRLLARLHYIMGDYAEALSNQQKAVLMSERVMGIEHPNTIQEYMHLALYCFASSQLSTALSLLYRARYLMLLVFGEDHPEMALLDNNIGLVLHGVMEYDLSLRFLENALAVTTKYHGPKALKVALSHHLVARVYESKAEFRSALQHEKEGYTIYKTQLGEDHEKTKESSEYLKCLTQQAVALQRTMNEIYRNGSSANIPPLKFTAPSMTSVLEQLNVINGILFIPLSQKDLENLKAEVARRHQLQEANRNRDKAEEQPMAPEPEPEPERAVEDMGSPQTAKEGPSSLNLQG
Description: affinity purification with mass spectrometry.

B1: SPAG5, endogenous in mouse embryonic stem cells (protein, UniProt Q7TME2 1-1165)
chain: MWRVKTLNLGLSPSPQKGKPAMSTPLRELKLQPEALADSGKGPSMISALTPYLCRLELKERCNNSSPVDFINTENNFLSEQFSHPSTHIEACQRESDPTPESNSLFHTLEEAIETVDDFVVDPRDDSIVESMVLLPFSLGQQQDLMLQAHLDTTAERTKSSLNESLGLEDLVGKEVAPCVEDSLTEIVAIRPEQPTFQDPPLGPSDTEDAPVDLVPSENVLNFSLARLSPSAVLAQDFSVDHVDPGEETVENRVLQEMETSFPTFPEEAELGDQAPAANAEAVSPLYLTSSLVEMGPREAPGPTVEDASRIPGLESETWMSPLAWLEKGVNTSVMLQNLRQSLSFSSVLQDAAVGNTPLATCSVGTSFTPPAPLEVGTKDSTSETERLLLGCRPPDLATLSRHDLEENLLNSLVLLEVLSHQLQAWKSQLTVPHREARDSSTQTDSSPCGVTKTPKHLQDSKEIRQALLQARNVMQSWGLVSGDLLSLLHLSLTHVQEGRVTVSQESQRSKTLVSSCSRVLKKLKAKLQSLKTECEEARHSKEMALKGKAAAEAVLEAFRAHASQRISQLEQGLTSMQEFRGLLQEAQTQLIGLHTEQKELAQQTVSLSSALQQDWTSVQLNYGIWAALLSWSRELTKKLTAKSRQALQERDAAIEEKKQVVKEVEQVSAHLEDCKGQIEQLKLENSRLTADLSAQLQILTSTESQLKEVRSQHSRCVQDLAVKDELLCQLTQSNKEQATQWQKEEMELKHIQAELLQQQAVLAKEVQDLRETVEFIDEESQVAHRELGQIESQLKVTLELLRERSLQCETLRDTVDSLRAELASTEAKHEKQALEKTHQHSQELRLLAEQLQSLTLFLQAKLKENKAESEIILPSTGSAPAQEHPLSNDSSISEQTPTAAVDEVPEPAPVPLLGSVKSAFTRVASMASFQPTETPDLEKSLAEMSTVLQELKSLCSLLQESKEEATGVLQREICELHSRLQAQEEEHQEALKAKEADMEKLNQALCLLRKNEKELLEVIQKQNEKILGQIDKSGQLINLREEVTQLTQSLRRAETETKVLQEALEGQLDPSCQLMATNWIQEKVFLSQEVSKLRVMFLEMKTEKEQLMDKYLSHRHILEENLRRSDTELKKLDDTIQHVYETLLSIPETMKSCKELQGLLEFLS
Take B1: the binding entry is given as “binds”.

B2: KNSTRN, endogenous in mouse embryonic stem cells (protein, UniProt Q9D9Z1 1-312)
chain: MAAPEAEAQETAFRTTGPPTDSEPRPFPPSSRKFPFESAAADSNEDWAVAAEHYLKGSGENGGWEQPAPGVQPSHPATMASAKTVCDAQPHSMPSCGLPADTQTRATSKLPVKSKEADLLRHLHPGGPEPDVTKVTKSRRENGQVKAAETASRRNLRNSYKPFNKQKPEEELKDKNELLEAVNKQLHQKLTETQGELKDLTQKVELLEKFQDNCLALLESKGLNPGQETLASKQEPTTDHTDSMLLLETLKDELKVFNETAKKQMEELQALKVKLKLKEEESVQFLEQQTLCKDEASDFTIILEEMEQLLEM
Regarding B2, the binding result is reported as “binds”.
